The target in experiment [1] is T1, recombinant human EpCAM extracellular domain (ECD) (human) (UniProt P16422).
T1 sequence (looked up): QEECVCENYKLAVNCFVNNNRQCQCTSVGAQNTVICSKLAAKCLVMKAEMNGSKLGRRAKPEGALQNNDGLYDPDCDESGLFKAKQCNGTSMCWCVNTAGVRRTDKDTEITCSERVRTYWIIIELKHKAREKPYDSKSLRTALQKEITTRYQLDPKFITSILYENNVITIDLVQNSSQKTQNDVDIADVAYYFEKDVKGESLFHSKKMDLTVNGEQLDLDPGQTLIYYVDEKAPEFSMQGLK
The experiment in a line: screening of hybridoma clones.

In experiment [2] the target is T2, human EpCAM expressed on cells (Colo205 cells, 293 cells, CHO cells) (human) (UniProt P16422).
T2 sequence (looked up): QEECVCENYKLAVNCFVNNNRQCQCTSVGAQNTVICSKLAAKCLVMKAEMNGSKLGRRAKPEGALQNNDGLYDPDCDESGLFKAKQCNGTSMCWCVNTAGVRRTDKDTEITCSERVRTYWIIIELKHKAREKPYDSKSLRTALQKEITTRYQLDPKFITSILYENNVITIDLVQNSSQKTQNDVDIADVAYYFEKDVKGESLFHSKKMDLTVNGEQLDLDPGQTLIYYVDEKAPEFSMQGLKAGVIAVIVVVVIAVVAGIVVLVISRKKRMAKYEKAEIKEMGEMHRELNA
Briefly: screening of hybridoma clones on CHO cells expressing human EpCAM.

These are yes or no findings as the source states them, for the method shown. Some results given as binding are weak or reduced against the parent protein; the word gives no strength.

B1: anti-EpCAM antibody expressed by hybridoma clone 12C10F12 (antibody, V domains shown)
VH: QVQLQQSGAELAKPGASVKVSCKASGYTFTSYWMHWVKQRPGQGLEWIGYIRPSTGYTEYNQKFKDKATLTADKSSSTAYMQLSSLTFEDSAVYYCGRGDNWVGFANWGQGTLVTVSA
VL: QIVLTQSPAIMSASLGEEIALTCSASSSISYMHWYQQKSGTSPKLLIYSTSNLASGVPSRFSGSGSGTFYSLTISSVEAEDAADYFCHQWSTYHTFGSGTKLEIK
For the molecule B1, the binding result in experiment [1] and in experiment [2] was “binds” each time.

Source of the values: patent publication US20240117067A1.
